Data as given in PMC9019904, “AD Informer Set: Chemical tools to facilitate Alzheimer's disease drug discovery” (Alzheimer's & Dementia : Translational Research & Clinical …, 2022).

Assay: physchem
Conditions: pH 7.4, aqueous buffer, kinetic from dmso stock

Work on COc1cc2c(cc1OC)C(=O)C(CC1CCN(Cc3ccccc3)CC1)C2.Cl (stereo not shown) [Donepezil Hydrochloride (E2020)] yielded a solubility kinetic of 175 µM.
